# Data taken from the supplement of paper PMC12823440, “Inhibitors supercharge kinase turnover through native proteolytic circuits” (Nature, 2025).
# Protein sequences, listed by entry. Tags and fused reporters are not part of them.
# UniProt Q96GD4, whole entry: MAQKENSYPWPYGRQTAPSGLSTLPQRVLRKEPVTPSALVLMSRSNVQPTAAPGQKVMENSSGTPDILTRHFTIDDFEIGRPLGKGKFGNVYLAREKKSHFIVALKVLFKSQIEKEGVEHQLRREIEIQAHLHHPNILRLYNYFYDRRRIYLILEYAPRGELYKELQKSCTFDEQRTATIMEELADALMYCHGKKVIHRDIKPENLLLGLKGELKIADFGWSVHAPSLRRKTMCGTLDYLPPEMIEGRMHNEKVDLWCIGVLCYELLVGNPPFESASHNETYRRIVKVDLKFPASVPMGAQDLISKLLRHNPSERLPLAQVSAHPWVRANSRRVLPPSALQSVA
# Where a name gives a salt, the structure may show the parent alone. The list shows a part of the results. Hit calls seldom repeat between salt and free forms of one compound.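 Kinases were expressed as nanoluciferase fusions in K562 cells and luminescence was read every 4 h between 2 and 18 h as percent of control, DMSO set to 100% and a positive control to 0%. A time point counts as decreased when the signal drops significantly (2 sigma). The hit call is the authors' own, does not follow from the count of time points alone, and its rule is not shown.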
# Molecular target: AURKB (UniProt Q96GD4)
# Test: number of time points (of 5) at which kinase-Nluc abundance scored as decreased, DMSO-normalised (count); higher = more persistent destabilization
# Settings: K562; 2-18 h
row,SMILES,number of time points
1,CN1CC[C@@H](c2c(O)cc(O)c3c(=O)cc(-c4ccc(C(F)(F)F)cc4Cl)oc23)[C@@H]1CO [Voruciclib (hydrochloride)] (10 µM),0
2,O=c1cc(-c2cccc3c2Sc2ccccc2S3)oc(N2CCOCC2)c1 (10 µM),0
3,O=[N+]([O-])c1ccc(Nc2nc(N3CCOCC3)nc(N3CCOCC3)n2)cc1 (10 µM),0
4,c1ccc(-c2nc(=NCCN3CCOCC3)sn2-c2ccccc2)cc1 [VP3.15 (dihydrobromide)] (10 µM),0
5,Nc1nc(N)c2nc(-c3cccc(O)c3)cnc2n1 (10 µM),0
6,Nc1ncnc2c1c(-c1ccc(Oc3ccccc3)cc1)nn2C1CCN(CCOCCOCCOc2ccc3c(c2)CN(C2CCC(=O)NC2=O)C3=O)CC1 (stereo not drawn) (2.5 µM),0
7,C=CC(=O)N1C[C@H](COc2nc(Nc3cnn(C)c3)nc3[nH]cc(Cl)c23)[C@@H](OC)C1 (2.5 µM),0
8,Cc1nn(C)c2c1C(c1ccc(C(F)(F)F)cc1)C(C#N)=C(N)O2 (stereo not drawn) (10 µM),0
9,O=C(NC1CCOCC1)c1ccc(-c2cc(-c3c[nH]nc3-c3ccccn3)ccn2)cc1 (10 µM),0
10,CC/C(=N\NC(=O)c1ccnc(NCCCN2CCOCC2)c1)c1ccc(Cl)cc1O (2.5 µM),0
11,COc1cc(N2CCOCC2)ccc1Nc1ncc(Cl)c(Nc2ccccc2NS(C)(=O)=O)n1 (2.5 µM),0
12,Cn1cnc([N+](=O)[O-])c1C[N+](C)(C)C/C=C/C(=O)Nc1cc2c(Nc3ccc(Cl)c(Br)c3)ncnc2cn1 [Tarloxotinib (bromide)] (10 µM),0
13,O=C(Nc1cccc(C(F)(F)F)c1)c1cccc2cc(Oc3cc(CO)ncn3)ccc12 (10 µM),0
14,Oc1ccc(/C=C/c2cc(O)cc(O)c2)cc1 [Resveratrol] (10 µM),0
15,O=c1[nH]c(C2CCCN2)nc2c1oc1ccc(Cl)cc12 (stereo not drawn) [XL413 (hydrochloride)] (10 µM),0
16,CN(c1ccc(NC(=O)Nc2ccc(OC(F)(F)F)cc2)cc1)c1ccnc(Nc2cccc(S(N)(=O)=O)c2)n1 (2.5 µM),1
17,C=C[C@@](C)(/C=C/c1ccc(O)cc1)CCC=C(C)C [Bakuchiol] (10 µM),0
18,COc1cc2ncnc(-n3nc(-c4ccccn4)nc3N)c2cc1OC (10 µM),0
19,CNc1nc(Nc2ccc(C(=O)N3CCOCC3)cc2OC)ncc1Cl (2.5 µM),0

row,SMILES,number of time points
1,CC(C)S(=O)(=O)c1ccc2nccc(Nc3ccc4scnc4c3)c2c1 (10 µM),0
2,CC(C)(O)[C@H]1CC[C@H](Nc2ccc3ncc(-c4cccc(C(F)(F)F)c4)n3n2)CC1 (10 µM),0
3,CCN(CC)c1ccc2cc(-c3nc4cc(C)ccc4o3)c(=O)oc2c1 (10 µM),0
4,CN(C)S(=O)(=O)c1ccc2c(c1)/C(=C/c1cc3c([nH]1)CCCC3)C(=O)N2 (2.5 µM),0
5,C=CC(=O)Nc1cc(Nc2nccc(-n3cc(CN(C)C)c(-c4ccccc4)n3)n2)c(OC)cc1N1CCOCC1 [Lazertinib] (10 µM),0
6,Cc1ccc2c(Nc3cccc(Cl)c3F)nccc2c1NC(=O)c1csc2c(N)ncnc12 [Belvarafenib] (10 µM),0
7,Oc1cc(O)c2c(c1)OC1(c3ccc(O)c(O)c3)Oc3cc(O)c4c(c3C2C1O)OC(c1ccc(O)c(O)c1)C(O)C4 (stereo not drawn) [Procyanidin A1] (10 µM),0
8,c1ccc(-c2nc3c(c(-n4ccc5cnccc54)n2)CCC3)nc1 (10 µM),0
9,Cc1cc(C)nc(NS(=O)(=O)c2ccc(NC(=S)NC(=O)COc3ccc(Br)cc3Cl)cc2)n1 (2.5 µM),0
10,Cc1ccc(NC(=O)c2ccc(CN(CCN(C)C)C(=O)c3cccnc3)cc2)cc1Nc1nccc(-c2cccnc2)n1 [PDGFRα kinase inhibitor 1] (10 µM),0
11,C[C@H](Nc1ncnc2[nH]cnc12)c1cc2ccc(F)cc2nc1-c1ccccn1 (10 µM),0
12,CN(C)CCC=C1c2ccccc2CCc2ccccc21 [Amitriptyline (hydrochloride)] (2.5 µM),0
13,O=C1/C(=C\c2ccc(Cl)cc2)C=C(c2ccccc2)N1c1ccc(O)cc1 (2.5 µM),0
14,C[C@@H]1CCNC(=O)c2cc3ccc(C(=O)Nc4nc5ccccc5n4CCCN(C)C)cc3n21 (10 µM),0
15,COc1c(Nc2cc(C)[nH]n2)nc(Sc2ccc(S(=O)(=O)Cc3cccc([N+](=O)[O-])c3F)cc2F)nc1N1CCCCC1 [Centrinone-B] (2.5 µM),0
16,COc1ccc(/C=C/C(=O)C2(C(=O)/C=C/c3ccc(OC)c(OC)c3)CCCCC2)cc1OC (2.5 µM),0
17,CN(C)c1nc2c(Br)c(Br)c(Br)c(Br)c2[nH]1 (10 µM),0
18,O=C(Nc1nc(=O)n(Cc2ccc(Cl)cc2)s1)c1ccc(Cl)cc1 (10 µM),0
19,Nc1n[nH]c2nc(-c3ccc(NS(=O)(=O)c4cc(Cl)ccc4F)cc3)cnc12 (10 µM),0

# Retrieved by structure from the entries so far (two):
row,SMILES,number of time points
17,CN(C)c1nc2c(Br)c(Br)c(Br)c(Br)c2[nH]1 (10 µM),0
8,c1ccc(-c2nc3c(c(-n4ccc5cnccc54)n2)CCC3)nc1 (10 µM),0
